Laboratory results as given in paper doi:10.1101/2025.11.04.686669.
Results are given in words; binding and its absence hold for the method and conditions named. Binding seen in cells or lysates may run through a third protein. Some binding calls cover weakened binding; strength is not graded here.

Sequences of proteins named here, by UniProt entry; tags and fusion partners are left off. A change or cut given only in a name is not applied to a line headed by its entry. Residues count along the entry.
UniProt Q06831, whole entry: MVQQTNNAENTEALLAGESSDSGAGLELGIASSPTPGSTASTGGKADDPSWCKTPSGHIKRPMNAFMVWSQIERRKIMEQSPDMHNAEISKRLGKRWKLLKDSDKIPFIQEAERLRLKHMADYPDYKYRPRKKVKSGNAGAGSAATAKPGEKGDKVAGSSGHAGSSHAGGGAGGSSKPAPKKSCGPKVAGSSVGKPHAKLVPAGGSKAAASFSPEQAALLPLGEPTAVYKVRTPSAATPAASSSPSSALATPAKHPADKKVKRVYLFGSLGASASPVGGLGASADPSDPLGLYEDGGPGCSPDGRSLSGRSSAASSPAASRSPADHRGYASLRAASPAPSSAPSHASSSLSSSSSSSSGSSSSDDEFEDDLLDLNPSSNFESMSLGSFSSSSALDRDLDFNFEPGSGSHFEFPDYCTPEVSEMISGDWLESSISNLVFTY
UniProt Q06831, 1-407, stated change not applied: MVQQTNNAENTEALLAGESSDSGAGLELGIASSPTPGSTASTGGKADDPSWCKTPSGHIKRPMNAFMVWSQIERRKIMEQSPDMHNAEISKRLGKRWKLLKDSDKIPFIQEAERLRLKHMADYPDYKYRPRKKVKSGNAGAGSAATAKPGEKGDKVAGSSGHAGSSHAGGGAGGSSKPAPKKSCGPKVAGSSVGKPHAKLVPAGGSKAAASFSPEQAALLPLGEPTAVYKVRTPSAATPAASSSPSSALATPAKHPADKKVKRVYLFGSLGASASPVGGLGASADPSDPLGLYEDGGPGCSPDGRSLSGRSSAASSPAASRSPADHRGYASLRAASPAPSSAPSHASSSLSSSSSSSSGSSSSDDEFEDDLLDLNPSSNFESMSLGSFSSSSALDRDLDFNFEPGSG
UniProt P54843, whole entry: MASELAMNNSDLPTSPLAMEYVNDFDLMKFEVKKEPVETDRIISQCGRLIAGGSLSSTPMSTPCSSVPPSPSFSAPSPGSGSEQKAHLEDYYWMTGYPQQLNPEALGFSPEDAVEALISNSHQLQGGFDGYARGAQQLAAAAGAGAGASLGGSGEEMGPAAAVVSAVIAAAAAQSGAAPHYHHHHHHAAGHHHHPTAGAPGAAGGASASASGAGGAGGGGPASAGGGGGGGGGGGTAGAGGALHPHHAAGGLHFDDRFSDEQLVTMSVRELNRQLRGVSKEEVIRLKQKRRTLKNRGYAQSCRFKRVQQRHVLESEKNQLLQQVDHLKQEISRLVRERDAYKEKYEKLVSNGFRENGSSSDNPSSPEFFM

How the values were obtained:
[1] = molecular target: HA-Sox4 (UniProt Q06831); assay: co-IP
[2] = molecular target: HA-Sox4ΔC (UniProt Q06831); assay: co-IP

## Flag-c-Maf (from UniProt P54843 1-370)
[1]
  binding: binds
[2]
  binding: binds
